Experimental data reported in paper PMC6199744, “Development of Chemical Proteomics for the Folateome and Analysis of the Kinetoplastid Folateome” (ACS Infectious Diseases, 2018).
This continues a long series; more values of the same kind are listed elsewhere.

Test system: L. major lysate proteins
Assay: Multitargeted bead mixture chemoproteomics, single concentration competition, proteome-wide
Assay type: binding

## Nc1nc2[nH]cc(CCc3ccc(C(=O)N[C@@H](CCC(=O)O)C(=O)O)cc3)c2c(=O)[nH]1 [PTX, pemetrexed]
Protein LMJF.32.0520 PROFILIN, PUTATIVE
  fold change vs vehicle control: 0.94
Protein LMJF.32.1000 […]-COMPLEX PROTEIN, PUTATIVE, vehicle control = 1
  fold change: 0.99
Protein LMJF.32.3010 HY[…], CONSERVED,LEUCINE-RICH REPEAT PROTEIN, PUTATIVE, vehicle control = 1
  fold change: 0.85
Protein LMJF.32.3270 […] SUBUNIT, PUTATIVE, vehicle control = 1
  fold change: 1.01
Protein LMJF.32.3310 DIHYDROLIPOAMIDE DEHYDROGENASE, PUTATIVE, vehicle control = 1
  fold change: 1.03
Protein LMJF.33.1930 PHOSPHORIBOSYLPYR[…], PUTATIVE, vehicle control = 1
  fold change: 1.04
Protein LMJF.33.2060 HY[…], CONSERVED, vehicle control = 1
  fold change: 0.97
Protein LMJF.33.2300 UDP-GLC 4'-EPIMERASE, PUTATIVE, vehicle control = 1
  fold change: 1.03
Protein LMJF.33.2390 HEAT SHOCK PROTEIN, PUTATIVE, vehicle control = 1
  fold change: 0.98
Protein LMJF.33.2410 HY[…], CONSERVED, vehicle control = 1
  fold change: 0.85
Protein LMJF.34.0840 T[…] 1-BETA, PUTATIVE, vehicle control = 1
  fold change: 1.03
Protein LMJF.34.0930 HY[…], CONSERVED, vehicle control = 1
  fold change: 0.95
Protein LMJF.34.2340 ASPARAGINYL-TRNA SYNTHETASE, PUTATIVE, vehicle control = 1
  fold change: 0.9
Protein LMJF.34.2610 ATP-DEPENDENT DNA HELICASE, PUTATIVE,RUVB DNA HELICASE-LIKE PROTEIN, PUTATIVE, vehicle control = 1
  fold change: 1.07
Protein LMJF.34.2820 REGULATORY SUBUNIT OF PROTEIN KINASE A-LIKE PROTEIN, vehicle control = 1
  fold change: 0.87
Protein LMJF.34.3500 RUVB-LIKE 1 DNA HELICASE, PUTATIVE, vehicle control = 1
  fold change: 0.92
Protein LMJF.34.3670 VACUOLAR ATP SYNTHASE CATALYTIC SUBUNIT A, PUTATIVE, vehicle control = 1
  fold change: 0.98
Protein LMJF.34.4120 HY[…], CONSERVED, vehicle control = 1
  fold change: 0.86
Protein LMJF.35.0030 PYRUVATE KINASE, vehicle control = 1
  fold change: 1.02
Protein LMJF.35.0240 60S RIBOSOMAL PROTEIN L30, vehicle control = 1
  fold change: 1.15
Protein LMJF.35.0760 CBS DOMAIN PROTEIN, CONSERVED, vehicle control = 1
  fold change: 0.77
Protein LMJF.35.0820 ASPARTATE AMINOTRANSFERASE, PUTATIVE, vehicle control = 1
  fold change: 0.94
Protein LMJF.35.1410 THREONYL-TRNA SYNTHETASE, PUTATIVE
  fold change vs vehicle control: 1.01
Protein LMJF.35.1720 CYCLOPHILIN 14, PUTATIVE, vehicle control = 1
  fold change: 0.79
Protein LMJF.35.2730 ACYL-COA DEHYDROGENASE, PUTATIVE, vehicle control = 1
  fold change: 1
Protein LMJF.35.3080 GLYCEROL KINASE, GLYCOSOMAL, PUTATIVE, vehicle control = 1
  fold change: 0.94
Protein LMJF.35.3100 ATP-DEPENDENT RNA HELICASE, PUTATIVE, vehicle control = 1
  fold change: 0.99
Protein LMJF.35.3230 C[…] LYASE, PUTATIVE, vehicle control = 1
  fold change: 0.92
Protein LMJF.35.3790 60S RIBOSOMAL PROTEIN L23, PUTATIVE, vehicle control = 1
  fold change: 1.14
Protein LMJF.35.4130 POLY(A)-BINDING PROTEIN 2, vehicle control = 1
  fold change: 1.02
Protein LMJF.35.4850 […] 1 SUBUNIT, PUTATIVE, vehicle control = 1
  fold change: 0.86
Protein LMJF.36.0180 […] 2, vehicle control = 1
  fold change: 1.02
Protein LMJF.36.0210 SET DOMAIN PROTEIN, PUTATIVE, vehicle control = 1
  fold change: 1.09
Protein LMJF.36.0740 HY[…], CONSERVED, vehicle control = 1
  fold change: 1.12
Protein LMJF.36.0900 PROTEIN KINASE, PUTATIVE,SNF1-RELATED PROTEIN KINASES, PUTATIVE
  fold change vs vehicle control: 0.89
Protein LMJF.36.1430 T[…] 1-BETA, PUTATIVE, vehicle control = 1
  fold change: 0.98
Protein LMJF.36.1940 INOSINE-GUANOSINE TRANSPORTER, vehicle control = 1
  fold change: 0.99
Protein LMJF.36.2020 CHAPERONIN HSP60, MIT[…], vehicle control = 1
  fold change: 1.05
Protein LMJF.36.3530 POLYUBIQUITIN, PUTATIVE
  fold change vs vehicle control: 1.02
Protein LMJF.36.4360 […] SUBUNIT, vehicle control = 1
  fold change: 1.05
Protein LMJF.36.4420 60S RIBOSOMAL PROTEIN L22, PUTATIVE, vehicle control = 1
  fold change: 0.98
Protein LMJF.36.4460 HY[…], CONSERVED, vehicle control = 1
  fold change: 0.95
Protein LMJF.36.5940 HY[…], CONSERVED, vehicle control = 1
  fold change: 0.89
Protein LMJF.36.6910 T-COMPLEX PROTEIN 1, THETA SUBUNIT, PUTATIVE,CHAPERONIN, PUTATIVE, vehicle control = 1
  fold change: 1
Vs vehicle control, protein CLM00008612.1 UNNAMED PROTEIN PRODUCT
  fold change: 0.79
Vs vehicle control, protein LINJ.20.0820 VESICLE-FUSING ATPASE, PUTATIVE,N-ETHYLMALEIMIDE-SENSITIVE FACTOR, PUTATIVE
  fold change: 0.83
Vs vehicle control, protein LINJ.36.1160 RIBOSOMAL PROTEIN L24, PUTATIVE
  fold change: 0.99
Vs vehicle control, protein LMJF.02.0370 […]-ATPASE SUBUNIT 6, PUTATIVE
  fold change: 0.84
Vs vehicle control, protein LMJF.05.0380 MICROTUBULE-ASSOCIATED PROTEIN, PUTATIVE
  fold change: 0.72
Vs vehicle control, protein LMJF.05.0780 HY[…], CONSERVED
  fold change: 0.96
Vs vehicle control, protein LMJF.06.0010 HISTONE H4
  fold change: 0.93
Vs vehicle control, protein LMJF.06.0370 GLUTAMINE SYNTHETASE, PUTATIVE
  fold change: 0.9
Vs vehicle control, protein LMJF.07.0460 ACYL-COA DEHYDROGENASE, MIT[…], PUTATIVE
  fold change: 1.03
Vs vehicle control, protein LMJF.08.1222 HY[…], CONSERVED
  fold change: 0.75
Vs vehicle control, protein LMJF.10.0510 GLYCEROL-3-PHOSPHATE DEH[…] ], GLYCOSOMAL
  fold change: 0.75
Vs vehicle control, protein LMJF.10.0910 SMALL GTP-BINDING PROTEIN RAB11, PUTATIVE
  fold change: 0.93
Vs vehicle control, protein LMJF.11.0130 NGG1 I[…] 3-LIKE PROTEIN
  fold change: 0.95
Vs vehicle control, protein LMJF.11.0480 HY[…], CONSERVED
  fold change: 0.79
Vs vehicle control, protein LMJF.11.1100 LANOSTEROL 14-ALPHA-DEMETHYLASE, PUTATIVE
  fold change: 1.03
Vs vehicle control, protein LMJF.11.1190 40S RIBOSOMAL PROTEIN S15A, PUTATIVE
  fold change: 1.06
Vs vehicle control, protein LMJF.13.1360 HY[…], CONSERVED
  fold change: 0.58
Vs vehicle control, protein LMJF.14.0130 INOSINE-GUANINE […], PUTATIVE
  fold change: 0.94
Vs vehicle control, protein LMJF.14.1320 SERINE HYDROXYMETHYLTRANFERASE (SHMT-S)
  fold change: 1.04
Vs vehicle control, protein LMJF.15.0190 HY[…], CONSERVED
  fold change: 0.96
